This is an account of results in doi:10.1101/2022.11.02.514969.

No constants are given. Whether binding was seen depends on the method and setting. Binding seen in cells or lysates may run through a third protein. Binding calls can cover weak binding; strength is not graded here.

Experiment [1] addresses T1, FANCA (transfected 293T cells) (UniProt O15360).
T1 sequence: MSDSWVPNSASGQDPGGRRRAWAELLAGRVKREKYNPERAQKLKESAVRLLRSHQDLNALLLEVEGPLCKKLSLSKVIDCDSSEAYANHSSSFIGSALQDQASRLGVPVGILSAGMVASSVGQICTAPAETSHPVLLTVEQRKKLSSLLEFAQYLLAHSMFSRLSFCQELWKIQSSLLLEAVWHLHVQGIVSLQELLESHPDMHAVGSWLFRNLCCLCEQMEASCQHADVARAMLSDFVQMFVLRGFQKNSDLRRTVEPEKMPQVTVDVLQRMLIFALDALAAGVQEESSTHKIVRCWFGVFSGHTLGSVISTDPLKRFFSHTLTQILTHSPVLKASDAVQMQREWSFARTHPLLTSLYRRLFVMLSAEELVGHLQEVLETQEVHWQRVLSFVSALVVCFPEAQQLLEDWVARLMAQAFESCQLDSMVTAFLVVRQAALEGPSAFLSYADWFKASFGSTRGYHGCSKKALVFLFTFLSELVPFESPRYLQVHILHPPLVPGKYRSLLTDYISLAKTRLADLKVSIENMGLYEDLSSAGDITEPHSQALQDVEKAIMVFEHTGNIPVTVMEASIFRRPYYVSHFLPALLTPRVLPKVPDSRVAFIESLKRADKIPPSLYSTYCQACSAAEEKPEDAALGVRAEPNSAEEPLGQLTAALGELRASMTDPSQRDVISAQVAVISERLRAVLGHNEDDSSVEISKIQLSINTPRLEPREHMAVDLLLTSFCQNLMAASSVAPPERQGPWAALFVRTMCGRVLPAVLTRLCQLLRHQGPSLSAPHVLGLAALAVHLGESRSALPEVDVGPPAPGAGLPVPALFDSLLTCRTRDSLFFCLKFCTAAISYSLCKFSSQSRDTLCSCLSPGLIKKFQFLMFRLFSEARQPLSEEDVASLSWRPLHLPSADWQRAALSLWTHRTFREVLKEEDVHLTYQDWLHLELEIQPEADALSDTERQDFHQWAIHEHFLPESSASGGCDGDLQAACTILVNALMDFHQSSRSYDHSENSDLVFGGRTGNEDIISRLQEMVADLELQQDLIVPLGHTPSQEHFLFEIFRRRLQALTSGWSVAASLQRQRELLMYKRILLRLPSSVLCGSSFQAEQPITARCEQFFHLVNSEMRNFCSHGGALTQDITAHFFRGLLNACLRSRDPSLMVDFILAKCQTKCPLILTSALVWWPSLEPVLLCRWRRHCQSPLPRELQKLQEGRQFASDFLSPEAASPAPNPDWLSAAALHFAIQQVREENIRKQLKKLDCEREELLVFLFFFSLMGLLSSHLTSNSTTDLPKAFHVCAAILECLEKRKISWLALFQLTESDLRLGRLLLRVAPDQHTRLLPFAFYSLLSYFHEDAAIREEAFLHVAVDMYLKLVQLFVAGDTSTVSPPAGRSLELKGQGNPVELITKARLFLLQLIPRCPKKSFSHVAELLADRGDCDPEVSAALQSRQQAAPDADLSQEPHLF
In words: co-IP.

The target in experiment [2] is HA-tagged wt IRIS (hairpin-resistant, in HME cells) (human). Briefly: co-IP.

On to “wt IRIS (transfected 293T cells) (human)”, for which the binding entry in experiment [1] is listed as “binds”.

B1: FANCL (protein, UniProt Q9NW38 1-375)
chain: MAVTEASLLRQCPLLLPQNRSKTVYEGFISAQGRDFHLRIVLPEDLQLKNARLLCSWQLRTILSGYHRIVQQRMQHSPDLMSFMMELKMLLEVALKNRQELYALPPPPQFYSSLIEEIGTLGWDKLVYADTCFSTIKLKAEDASGREHLITLKLKAKYPAESPDYFVDFPVPFCASWTPQSSLISIYSQFLAAIESLKAFWDVMDEIDEKTWVLEPEKPPRSATARRIALGNNVSINIEVDPRHPTMLPECFFLGADHVVKPLGIKLSRNIHLWDPENSVLQNLKDVLEIDFPARAILEKSDFTMDCGICYAYQLDGTIPDQVCDNSQCGQPFHQICLYEWLRGLLTSRQSFNIIFGECPYCSKPITLKMSGRKH
For B1, the binding entry in experiment [2] was “binds”.

B2: FANCA (endogenous) (protein, UniProt O15360 1-1455)
chain: T1 sequence
As for B2, the binding result in experiment [2] was “binds”.
